Assay [1] deals with annexin II, 35 kDa angiostatin binding protein purified from bovine aortic endothelial cells (bovine) (UniProt P04272). Description: radioligand binding to annexin II on Protein A Sepharose gel.
Assay [2] shares this target. Nature of the assay: solid phase radioligand binding, annexin II coated on plates.
The target is the same in assay [3]. Nature of the assay: ligand blot of purified 35 kDa fractions, angiostatin 1 ug/ml.

Protein sequences, listed by entry. Tags and fused reporters are not part of them. Lines headed by an entry give the natural chain unless they say otherwise; changes in a name come on top. Residues count along the entry.
UniProt P04272, residues 2-339: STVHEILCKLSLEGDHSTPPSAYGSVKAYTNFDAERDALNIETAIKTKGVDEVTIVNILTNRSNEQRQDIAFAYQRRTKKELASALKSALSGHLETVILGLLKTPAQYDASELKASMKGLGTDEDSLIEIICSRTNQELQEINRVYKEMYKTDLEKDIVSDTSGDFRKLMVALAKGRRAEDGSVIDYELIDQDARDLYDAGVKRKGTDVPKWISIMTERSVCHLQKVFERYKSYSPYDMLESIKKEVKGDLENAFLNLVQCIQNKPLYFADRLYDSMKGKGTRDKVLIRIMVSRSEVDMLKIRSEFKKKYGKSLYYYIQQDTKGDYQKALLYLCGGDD
UniProt P00747: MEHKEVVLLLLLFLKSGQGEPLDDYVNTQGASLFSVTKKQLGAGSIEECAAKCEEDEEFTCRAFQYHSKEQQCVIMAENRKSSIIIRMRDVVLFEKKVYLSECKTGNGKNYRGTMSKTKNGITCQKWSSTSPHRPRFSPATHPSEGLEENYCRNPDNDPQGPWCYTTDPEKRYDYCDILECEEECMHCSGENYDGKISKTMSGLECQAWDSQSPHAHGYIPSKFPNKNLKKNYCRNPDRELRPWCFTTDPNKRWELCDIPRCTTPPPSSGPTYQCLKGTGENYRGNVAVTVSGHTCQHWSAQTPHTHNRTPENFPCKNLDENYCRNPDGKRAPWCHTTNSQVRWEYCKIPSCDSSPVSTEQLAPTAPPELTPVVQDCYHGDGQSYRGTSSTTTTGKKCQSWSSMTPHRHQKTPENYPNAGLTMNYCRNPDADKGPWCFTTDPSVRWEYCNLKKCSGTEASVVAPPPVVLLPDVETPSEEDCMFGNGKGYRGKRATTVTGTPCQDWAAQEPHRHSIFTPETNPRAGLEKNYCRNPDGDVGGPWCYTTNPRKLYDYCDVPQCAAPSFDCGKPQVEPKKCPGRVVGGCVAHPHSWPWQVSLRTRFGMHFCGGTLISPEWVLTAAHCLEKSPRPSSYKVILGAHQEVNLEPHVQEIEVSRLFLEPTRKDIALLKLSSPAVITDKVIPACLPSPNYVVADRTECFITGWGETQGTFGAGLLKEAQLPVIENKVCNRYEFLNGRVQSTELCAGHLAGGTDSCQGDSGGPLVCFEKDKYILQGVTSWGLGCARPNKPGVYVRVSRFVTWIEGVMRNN

No constants are given. Whether binding was seen depends on the method and setting. Some binding calls cover weakened binding; strength is not graded here.

Take “plasminogen (from UniProt P00747 20-810) (ligand)”: the binding entry in assay [1] is listed as “binds”.

As to “angiostatin (38 kDa kringle 1-4 fragment of human plasminogen, made by limited digestion with bovine pancreatic elastase) (from UniProt P00747 99-459) (ligand)”, the binding entry in assay [1], in assay [2] and in assay [3] was “binds” in each case.

(Values after patent publication US20040109864A1.)
